According to patent publication US20160024194A1:

Assays:
[1] = target: human fibrin fragment E (FFE) (human); assay: ELISA of parental hybridoma clone supernatant, on FFE
[2] = target: human fibrin fragment E (FFE) (human); assay: ELISA

binding [1]	binding [2]	Binder
binds	binds	7A8 monoclonal antibody produced by hybridoma PTA-120971 (antibody, V domains shown) VH: QVQLRESEPGLVAPSRSLSITCTVSGFSLTSYAVSWVRQPPGKGLEWLGVIWTGGGTNYNSALKSRLSISKDNSKNQVFLKMNSLQTDDTARYYCARYSNLYYAMDYWGQGTSVTVSS VL: DIVMTQSQKFMSTSVGERVSITCKASQNVGTNVAWYQQKAGQSLELLIYGASNRHTGVPDRFTGSGSGTDFTLTITNVQSEDMTNYFCEQYRSYPLTFGGGSKLEIK
binds	binds	7A2 monoclonal antibody produced by hybridoma PTA-120970 (antibody, V domains shown) VH: QVQLRESEPGLVAPSQSLSITCTVSGFSLTSYAVSWVRQPPGKGLEWLGVIWTGGGTNYNSALKSRLSISRDNSKNQVFLKMNSLQTDDTARYYCARYSNLYYAMDYWGQGTSVTVSS VL: DIVMTQSQKFMSTSVGERVSITCKASQNVGTNVAWYQQKAGQSLELLIYGASNRHTGVPDRFTGSGSGTDFTLTITNVQSEDMTNYFCEQYRSYPLTFGGGSKLEIK
binds	binds	6E7 monoclonal antibody produced by hybridoma PTA-120972 (antibody, V domains shown) VH: QVQLQQPGSVLVRPGASVKLSCKASGYTFTSYWMHWAKQRPGQGLEWIGQIHPISGNIKYNEKFKGKATLTVDTSPSTAYVDLSSLTSEDSAVYYCARDTYYTNNDAVDYWGQGTSVTVSS VL: DIVMTQSHKFMSTSVGDRVSITCKASQDVGSVVAWYQQKPGQSPKLLIYWASTRHTGIPNRFTGRGSGTDFTLTITNVQSEDLADYFCQQYSNYPLTFGAGTKLELK

Results are given in words; binding and its absence hold for the method and conditions named. A result given as binding can be weak or reduced; the word gives no strength.
